# The other results are listed elsewhere or left out.
# B1: PGP3 (Chlamydia trachomatis), P0CE18 (protein)
# chain: MGNSGFYLYNTQNCVFADNIKVGQMTEPLKDQQIILGTTSTPVAAKMTASDGISLTVSNNPSTNASITIGLDAEKAYQLILEKLGDQILGGIADTIVDSTVQDILDKITTDPSLGLLKAFNNFPITNKIQCNGLFTPRNIETLLGGTEIGKFTVTPKSSGSMFLVSADIIASRMEGGVVLALVREGDSKPYAISYGYSSGVPNLCSLRTRIINTGLTPTTYSLRVGGLESGVVWVNALSNGNDILGITNTSNVSFLEVIPQTNA
# How the values were obtained:
# Assay in all cases: glycan array binding signal (z-score within array); higher = stronger binding
# Details in all cases: glycan notation: IUPAC condensed, linker removed
# Fuc(a1-2)Gal = molecular target: Fuc(a1-2)Gal
# Outline: (§1)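 Glycan array binding is given as a within-array Z-score, which can be read as non-binding when negative. The arrays, 3228 of them, came from the Consortium for Functional Glycomics database and were retained only where the protein sequence was available. Z-scores were averaged across arrays of the same protein sequence at different concentrations or buffers and across linkers.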
# Fuc(a1-2)Gal(b1-3)GalNAc = molecular target: Fuc(a1-2)Gal(b1-3)GalNAc
# Outline: as §1
# [1] = molecular target: Fuc(a1-2)Gal(b1-3)GalNAc(a1-3)[Fuc(a1-2)]Gal(b1-4)Glc
# Outline: as §1
# [2] = molecular target: Fuc(a1-2)Gal(b1-3)GalNAc(a1-3)[Fuc(a1-2)]Gal(b1-4)GlcNAc
# Outline: as §1
# [3] = molecular target: Fuc(a1-2)Gal(b1-3)GalNAc(b1-3)Gal
# Outline: as §1
# [4] = molecular target: Fuc(a1-2)Gal(b1-3)GalNAc(b1-3)Gal(a1-4)Gal(b1-4)Glc
# Outline: as §1
# [5] = molecular target: Fuc(a1-2)Gal(b1-3)GalNAc(b1-4)[Neu5Ac(a2-3)]Gal(b1-4)Glc
# Outline: as §1
# Fuc(a1-2)Gal(b1-3)GlcNAc = molecular target: Fuc(a1-2)Gal(b1-3)GlcNAc
# Outline: as §1
# [6] = molecular target: Fuc(a1-2)Gal(b1-3)GlcNAc(b1-2)Man(a1-3)[Fuc(a1-2)Gal(b1-3)GlcNAc(b1-2)Man(a1-6)]Man(b1-4)GlcNAc(b1-4)GlcNAc
# Outline: as §1
# [7] = molecular target: Fuc(a1-2)Gal(b1-3)GlcNAc(b1-2)Man(a1-3)[Fuc(a1-2)Gal(b1-3)GlcNAc(b1-2)Man(a1-6)]Man(b1-4)GlcNAc(b1-4)[Fuc(a1-6)]GlcNAc
# Outline: as §1
# [8] = molecular target: Fuc(a1-2)Gal(b1-3)GlcNAc(b1-3)Gal(b1-4)Glc
# Outline: as §1
# [9] = molecular target: Fuc(a1-2)Gal(b1-3)GlcNAc(b1-3)GalNAc
# Outline: as §1
# [10] = molecular target: Fuc(a1-2)Gal(b1-3)GlcNAc(b1-3)[Fuc(a1-3)[Gal(b1-4)]GlcNAc(b1-6)]Gal(b1-4)Glc
# Outline: as §1
# [11] = molecular target: Fuc(a1-2)Gal(b1-3)GlcNAc(b1-3)[Gal(b1-4)GlcNAc(b1-6)]Gal(b1-4)Glc
# Outline: as §1
# [12] = molecular target: Fuc(a1-2)Gal(b1-3)GlcNAc(b1-3)[Neu5Ac(a2-6)Gal(b1-4)GlcNAc(b1-6)]Gal(b1-4)Glc
# Outline: as §1
# [13] = molecular target: Fuc(a1-2)Gal(b1-3)[Fuc(a1-4)]GlcNAc
# Outline: as §1
# [14] = molecular target: Fuc(a1-2)Gal(b1-3)[Fuc(a1-4)]GlcNAc(b1-2)Man(a1-3)[Fuc(a1-2)Gal(b1-3)[Fuc(a1-4)]GlcNAc(b1-2)Man(a1-6)]Man(b1-4)GlcNAc(b1-4)GlcNAc
# Outline: as §1
# [15] = molecular target: Fuc(a1-2)Gal(b1-3)[Fuc(a1-4)]GlcNAc(b1-3)[Fuc(a1-3)[Gal(b1-4)]GlcNAc(b1-6)]Gal(b1-4)Glc
# Outline: as §1
# [16] = molecular target: Fuc(a1-2)Gal(b1-3)[Fuc(a1-4)]GlcNAc(b1-3)[Gal(b1-4)GlcNAc(b1-6)]Gal(b1-4)Glc
# Outline: as §1
# Fuc(a1-2)Gal(b1-4)Glc = molecular target: Fuc(a1-2)Gal(b1-4)Glc
# Outline: as §1
# Fuc(a1-2)Gal(b1-4)Glc6S = molecular target: Fuc(a1-2)Gal(b1-4)Glc6S
# Outline: as §1
# Fuc(a1-2)Gal(b1-4)GlcNAc = molecular target: Fuc(a1-2)Gal(b1-4)GlcNAc
# Outline: as §1
# [17] = molecular target: Fuc(a1-2)Gal(b1-4)GlcNAc(b1-2)Man(a1-3)[Fuc(a1-2)Gal(b1-4)GlcNAc(b1-2)Man(a1-6)]Man(b1-4)GlcNAc(b1-4)GlcNAc
# Outline: as §1
# [18] = molecular target: Fuc(a1-2)Gal(b1-4)GlcNAc(b1-2)Man(a1-3)[Fuc(a1-2)Gal(b1-4)GlcNAc(b1-2)Man(a1-6)]Man(b1-4)GlcNAc(b1-4)[Fuc(a1-6)]GlcNAc
# Outline: as §1
# [19] = molecular target: Fuc(a1-2)Gal(b1-4)GlcNAc(b1-2)[Fuc(a1-2)Gal(b1-4)GlcNAc(b1-4)]Man(a1-3)[Fuc(a1-2)Gal(b1-4)GlcNAc(b1-2)Man(a1-6)]Man(b1-4)GlcNAc(b1-4)GlcNAc
# Outline: as §1
# [20] = molecular target: Fuc(a1-2)Gal(b1-4)GlcNAc(b1-3)Gal(b1-4)GlcNAc
# Outline: as §1
# [21] = molecular target: Fuc(a1-2)Gal(b1-4)GlcNAc(b1-3)Gal(b1-4)GlcNAc(b1-3)Gal(b1-4)GlcNAc
# Outline: as §1
# [22] = molecular target: Fuc(a1-2)Gal(b1-4)GlcNAc(b1-3)GalNAc
# Outline: as §1
# [23] = molecular target: Fuc(a1-2)Gal(b1-4)GlcNAc(b1-3)[Fuc(a1-2)Gal(b1-4)GlcNAc(b1-6)]GalNAc
# Outline: as §1
# [24] = molecular target: Fuc(a1-2)Gal(b1-4)GlcNAc6S
# Outline: as §1
# [25] = molecular target: Fuc(a1-2)Gal(b1-4)[Fuc(a1-3)]GlcNAc
# Outline: as §1
# [26] = molecular target: Fuc(a1-2)Gal(b1-4)[Fuc(a1-3)]GlcNAc(b1-2)Man(a1-3)[Fuc(a1-2)Gal(b1-4)[Fuc(a1-3)]GlcNAc(b1-2)Man(a1-6)]Man(b1-4)GlcNAc(b1-4)GlcNAc
# Outline: as §1
# [27] = molecular target: Fuc(a1-2)Gal(b1-4)[Fuc(a1-3)]GlcNAc(b1-2)[Fuc(a1-2)Gal(b1-4)[Fuc(a1-3)]GlcNAc(b1-4)]Man(a1-3)[Fuc(a1-2)Gal(b1-4)[Fuc(a1-3)]GlcNAc(b1-2)Man(a1-6)]Man(b1-4)GlcNAc(b1-4)GlcNAc
# Outline: as §1
# [28] = molecular target: Fuc(a1-2)Gal(b1-4)[Fuc(a1-3)]GlcNAc(b1-3)Gal(b1-4)[Fuc(a1-3)]GlcNAc
# Outline: as §1
# [29] = molecular target: Fuc(a1-2)Gal(b1-4)[Fuc(a1-3)]GlcNAc(b1-3)Gal(b1-4)[Fuc(a1-3)]GlcNAc(b1-3)Gal(b1-4)[Fuc(a1-3)]GlcNAc
# Outline: as §1
# [30] = molecular target: Fuc(a1-2)Gal(b1-4)[Fuc(a1-3)]GlcNAc(b1-3)GalNAc
# Outline: as §1
# Fuc(a1-2)Gal6S(b1-4)Glc = molecular target: Fuc(a1-2)Gal6S(b1-4)Glc
# Outline: as §1
# [31] = molecular target: Fuc(a1-2)Gal6S(b1-4)Glc6S
# Outline: as §1
# [32] = molecular target: Fuc(a1-2)Gal6S(b1-4)GlcNAc
# Outline: as §1
# Fuc(a1-2)[Gal(a1-3)]Gal = molecular target: Fuc(a1-2)[Gal(a1-3)]Gal
# Outline: as §1
# [33] = molecular target: Fuc(a1-2)[Gal(a1-3)]Gal(b1-3)GalNAc
# Outline: as §1
# [34] = molecular target: Fuc(a1-2)[Gal(a1-3)]Gal(b1-3)GlcNAc
# Outline: as §1
# [35] = molecular target: Fuc(a1-2)[Gal(a1-3)]Gal(b1-3)GlcNAc(b1-2)Man(a1-3)[Fuc(a1-2)[Gal(a1-3)]Gal(b1-3)GlcNAc(b1-2)Man(a1-6)]Man(b1-4)GlcNAc(b1-4)GlcNAc
# Outline: as §1
# [36] = molecular target: Fuc(a1-2)[Gal(a1-3)]Gal(b1-3)GlcNAc(b1-2)Man(a1-3)[Fuc(a1-2)[Gal(a1-3)]Gal(b1-3)GlcNAc(b1-2)Man(a1-6)]Man(b1-4)GlcNAc(b1-4)[Fuc(a1-6)]GlcNAc
# Outline: as §1
# [37] = molecular target: Fuc(a1-2)[Gal(a1-3)]Gal(b1-3)GlcNAc(b1-3)GalNAc
# Outline: as §1
binder,measurement,setting,value
B1,glycan array binding signal (z-score),Fuc(a1-2)Gal,2.47
same,glycan array binding signal (z-score),Fuc(a1-2)Gal(b1-3)GalNAc,0.021
same,glycan array binding signal (z-score),[1],0.938
same,glycan array binding signal (z-score),[2],-0.089
same,glycan array binding signal (z-score),[3],-0.356
same,glycan array binding signal (z-score),[4],-0.815
same,glycan array binding signal (z-score),[5],-0.647
same,glycan array binding signal (z-score),Fuc(a1-2)Gal(b1-3)GlcNAc,-0.002
same,glycan array binding signal (z-score),[6],0.71
same,glycan array binding signal (z-score),[7],0.775
same,glycan array binding signal (z-score),[8],-0.587
same,glycan array binding signal (z-score),[9],-0.514
same,glycan array binding signal (z-score),[10],0.095
same,glycan array binding signal (z-score),[11],0.289
same,glycan array binding signal (z-score),[12],-0.576
same,glycan array binding signal (z-score),[13],-0.264
same,glycan array binding signal (z-score),[14],-0.368
same,glycan array binding signal (z-score),[15],-0.443
same,glycan array binding signal (z-score),[16],0.103
same,glycan array binding signal (z-score),Fuc(a1-2)Gal(b1-4)Glc,-0.803
same,glycan array binding signal (z-score),Fuc(a1-2)Gal(b1-4)Glc6S,-0.486
same,glycan array binding signal (z-score),Fuc(a1-2)Gal(b1-4)GlcNAc,1.28
same,glycan array binding signal (z-score),[17],-0.053
same,glycan array binding signal (z-score),[18],-0.158
same,glycan array binding signal (z-score),[19],2.62
same,glycan array binding signal (z-score),[20],-0.699
same,glycan array binding signal (z-score),[21],-0.571
same,glycan array binding signal (z-score),[22],-0.835
same,glycan array binding signal (z-score),[23],0.262
same,glycan array binding signal (z-score),[24],0.516
same,glycan array binding signal (z-score),[25],-0.326
same,glycan array binding signal (z-score),[26],0.025
same,glycan array binding signal (z-score),[27],1.45
same,glycan array binding signal (z-score),[28],1.38
same,glycan array binding signal (z-score),[29],-0.982
same,glycan array binding signal (z-score),[30],-0.08
same,glycan array binding signal (z-score),Fuc(a1-2)Gal6S(b1-4)Glc,0.584
same,glycan array binding signal (z-score),[31],0.047
same,glycan array binding signal (z-score),[32],-0.593
same,glycan array binding signal (z-score),Fuc(a1-2)[Gal(a1-3)]Gal,-1.07
same,glycan array binding signal (z-score),[33],-0.601
same,glycan array binding signal (z-score),[34],-0.483
same,glycan array binding signal (z-score),[35],5.67
same,glycan array binding signal (z-score),[36],0.251
same,glycan array binding signal (z-score),[37],2.01

# Some of the entries so far, as tab-separated lines.
binder	measurement	setting	value
B1	glycan array binding signal (z-score)	Fuc(a1-2)[Gal(a1-3)]Gal	-1.07
same	glycan array binding signal (z-score)	[33]	-0.601
same	glycan array binding signal (z-score)	[34]	-0.483
